No constants are given. Whether binding was seen depends on the method and setting. For part of these data: In cells and extracts the contact can be indirect. Some entries that bind do so weakly or less than the wild type. For part of these data: Tags and fused reporters may be left off the sequences shown.
T1: OsPYL/RCAR3 (co-immunoprecipitation construct) (rice (Oryza sativa cv. Dongjin)) (UniProt Q6EN42)
T1 sequence: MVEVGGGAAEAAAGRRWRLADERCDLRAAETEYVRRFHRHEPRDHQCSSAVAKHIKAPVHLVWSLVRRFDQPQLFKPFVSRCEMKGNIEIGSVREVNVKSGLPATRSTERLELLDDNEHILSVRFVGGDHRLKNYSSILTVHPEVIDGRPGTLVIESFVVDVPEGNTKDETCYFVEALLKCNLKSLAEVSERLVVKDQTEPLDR

T2: OsPYL/RCAR3 (yeast two-hybrid fusion) (rice (Oryza sativa cv. Dongjin)) (UniProt Q6EN42)
T2 sequence: T1 sequence

T3: OsPYL/RCAR3-VN (BiFC fusion) (rice (Oryza sativa cv. Dongjin)) (UniProt Q6EN42)
T3 sequence: T1 sequence

B1: OsPP2C06 (co-immunoprecipitation construct) (enzyme, UniProt Q0JLP9 1-467)
chain: MEDVAVAAALAPAPATAPVFSPAAAGLTLIAAAAADPIAAVVAGAMDGVVTVPPVRTASAVEDDAVAPGRGEEGGEASAVGSPCSVTSDCSSVASADFEGVGLGFFGAAADGGAAMVFEDSAASAATVEAEARVAAGARSVFAVECVPLWGHKSICGRRPEMEDAVVAVSRFFDIPLWMLTGNSVVDGLDPMSFRLPAHFFGVYDGHGGAQVANYCRERLHAALVEELSRIEGSVSGANLGSVEFKKKWEQAFVDCFSRVDEEVGGNASRGEAVAPETVGSTAVVAVICSSHIIVANCGDSRAVLCRGKQPVPLSVDHKPNREDEYARIEAEGGKVIQWNGYRVFGVLAMSRSIGDRYLKPWIIPVPEITIVPRAKDDECLVLASDGLWDVMSNEEVCDVARKRILLWHKKNGTNPASAPRSGDSSDPAAEAAAECLSKLALQKGSKDNISVIVVDLKAHRKFKSKS
B2: OsPP2C09 (co-immunoprecipitation construct) (enzyme, UniProt Q5N9N2 1-414)
chain: MAEICCEEAMSPPATATAAVAAAVSASAAAAVSSAIDRRRRRMEMRRIRIASDLELQAGEDGRPGKRQRLARTASGAPRPDEDSASERPSCGRTEEFPRYGVTAVCGRRREMEDAVSIRPDFLPASGKFHFYGVFDGHGCSHVATTCQDRMHEIVAEEHNKGASGEVAPWRDVMEKSFARMDGEVGNRASTRSDDEPACPCEQQTPSRRDHAGSTAVVAVVSPTQVVVANAGDSRAVISRAGVPVALSVDHKPDRPDELERIEAAGGRVIYWDGARVLGVLAMSRAIGDGYLKPYVTSEPEVTVTERTDDDECLILASDGLWDVVTNEMACEVVRACFHNNGPPAPAARPSGVPSSAEAAETENGGAASVKGISKAESSDKACSDAAMLLTKLALARRSADNVSVVVVDLRRGL
B3: OsPP2C30 (co-immunoprecipitation construct) (enzyme, UniProt Q84JI0 1-404)
chain: MAEICCEVVAGSSSEGKGPECDTGSRAARRRRMEIRRLRVVAERGAEEETSGKRRRLDGGGGEASTDEEDREVERARYGFTSVCGRRRDMEDSVSACPGFLPGHHFFGVFDGHGCSHVATSCGQRMHEIVVDEAGAAAGSAGLDEEARWRGVMERSFARMDAEAVASSRGSVAPAPTCRCEMQLPKCDHVGSTAVVAVLGPRHVVVANCGDSRAVLCRGGAAIPLSCDHKPDRPDELERIHAAGGRVIFWDGARVFGMLAMSRAIGDSYLKPYVICDPEVRVMERKDGEDEFLILASDGLWDVVSNEVACNVVRACLRSSGRRERNRSSPTSNLSPRQSSSSGDEAPNDGAPSAAAGSESDEESAAEEDKACAEAAVLLTKLALARQTSDNVSVVVVNLRRRKL
B4: OsPP2C06 (yeast two-hybrid fusion) (enzyme, UniProt Q0JLP9 1-467)
chain: B1 chain
B5: OsPP2C09 (yeast two-hybrid fusion) (enzyme, UniProt Q5N9N2 1-414)
chain: B2 chain
B6: OsPP2C30 (yeast two-hybrid fusion) (enzyme, UniProt Q84JI0 1-404)
chain: B3 chain
B7: OsPP2C06-VN (BiFC fusion) (enzyme, UniProt Q0JLP9 1-467)
chain: B1 chain
B8: OsPP2C09-VN (BiFC fusion) (enzyme, UniProt Q5N9N2 1-414)
chain: B2 chain
B9: OsPP2C30-VN (BiFC fusion) (enzyme, UniProt Q84JI0 1-404)
chain: B3 chain

What follows are binders tested against T1, OsPYL/RCAR3 (co-immunoprecipitation construct) (rice (Oryza sativa cv. Dongjin)) (assay: co-IP; rice protoplasts transfected with GFP and 3xHA fusions, 28 °C for 20 h; extracts in 150 mM NaCl, 50 mM Tris-HCl pH 7.5, 0.5% NP40, 0.5% Triton X-100; GFP-trap beads, 4 °C for 2 h, 5 washes; immunoblot with anti-GFP and anti-HA).

binding | Binder
binds | B1
binds | B2
binds | B3

Each binder was assayed against T2, OsPYL/RCAR3 (yeast two-hybrid fusion) (rice (Oryza sativa cv. Dongjin)) (assay: two-hybrid; yeast two-hybrid; interaction seen even in the absence of ABA in the growth medium (Figure S3B)).

binding | Binder
binds | B4
binds | B5
binds | B6

These binders were tested against T3, OsPYL/RCAR3-VN (BiFC fusion) (rice (Oryza sativa cv. Dongjin)) (assay: split reporter; BiFC with split Venus (VN and VC fusions) in rice protoplasts, PEG-mediated transfection; ER-mCherry as internal control; confocal microscopy).

binding | Binder
binds | B7
binds | B8
binds | B9
